In patent publication US20040229241A1, “Cloned mammalian polyamine oxidase” (priority 2001, published 2004):

Tested on: NCI A549 cells
Experiment: Intracellular polyamine and analogue content of NCI A549 cells (HPLC)
Format: cell-based, human
Settings: NCI A549, 10 μM, 24 h
From the text: Total cellular RNA was extracted from the lung cancer cell lines using Trizol reagent (Invitrogen) according to the manufacturer's protocol. For Northern blotting, total RNA (20 lg) was separated on a denaturing 1.5% agarose gel containing 6% formaldehyde and transferred to Zetaprobe membrane (Bio-Rad). Random primer- labeled PAOh1 cDNA was used as probe to estimate PAOh1/SMO expression. Blots were stripped and reprobed with an 18S ribosomal cDNA to provide a loading control. Analysis of polyamine content, SSAT and PAOh1/SMO activity. Intracellular polyamine concentrations were determined using the precolumn dansylation labeling, reverse-phase high-pressure liquid chromatography method as described by Kabra et al. using 1,7-diaminoheptane as an internal standard. Polyamine concentrations are reported as nanomoles per milligram protein for each sample, where lysate protein content was measured by the method of Bradford. SSAT activity of cellular extracts was measured as previously described. […] The PAOh1/SMO assays were performed in the presence of 1.0 mM pargyline and 0.1 mM semicarbizide as inhibitors of monoamine oxidase (MAO) and diamine oxidase (DAO), respectively.

Row | Structure (SMILES) | Analogue (intracellular accumulation) [nmol/mg protein]
1 | CCNCCCNCCCNCCCNCC [BENSpm, N^1,N^11-bis(ethyl)norspermine] | 49.4 ± 9.8
2 | CCNCCCNCCCNCCCNCC1CC1 [CPENSpm, N^1-ethyl-N^11-(cyclopropyl) methyl-4,8,diazaundecane] | 17.8 ± 1.4
